Among the data in article doi:10.1101/2022.08.31.505729 are binding values, retold here.

Amino acid sequences for entries named in this document (tags omitted). A change or cut given only in a name is not applied to a line headed by its entry.
UniProt Q8RX71: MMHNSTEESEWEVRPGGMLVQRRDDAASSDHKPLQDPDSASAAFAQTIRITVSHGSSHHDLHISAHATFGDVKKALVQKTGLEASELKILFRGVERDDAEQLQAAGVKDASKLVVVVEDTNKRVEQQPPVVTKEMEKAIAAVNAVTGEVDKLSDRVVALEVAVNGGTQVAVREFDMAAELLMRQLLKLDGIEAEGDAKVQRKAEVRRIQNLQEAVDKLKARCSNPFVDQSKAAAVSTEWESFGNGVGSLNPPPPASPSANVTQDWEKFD
UniProt Q42374: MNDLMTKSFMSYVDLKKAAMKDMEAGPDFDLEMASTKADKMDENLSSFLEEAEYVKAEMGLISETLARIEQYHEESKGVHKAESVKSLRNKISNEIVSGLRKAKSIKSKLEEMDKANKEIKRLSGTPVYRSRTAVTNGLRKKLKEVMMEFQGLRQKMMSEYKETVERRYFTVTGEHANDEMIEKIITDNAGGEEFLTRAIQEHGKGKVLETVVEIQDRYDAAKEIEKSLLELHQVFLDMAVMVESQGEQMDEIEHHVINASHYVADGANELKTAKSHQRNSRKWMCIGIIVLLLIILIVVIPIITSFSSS
UniProt F4J8D3: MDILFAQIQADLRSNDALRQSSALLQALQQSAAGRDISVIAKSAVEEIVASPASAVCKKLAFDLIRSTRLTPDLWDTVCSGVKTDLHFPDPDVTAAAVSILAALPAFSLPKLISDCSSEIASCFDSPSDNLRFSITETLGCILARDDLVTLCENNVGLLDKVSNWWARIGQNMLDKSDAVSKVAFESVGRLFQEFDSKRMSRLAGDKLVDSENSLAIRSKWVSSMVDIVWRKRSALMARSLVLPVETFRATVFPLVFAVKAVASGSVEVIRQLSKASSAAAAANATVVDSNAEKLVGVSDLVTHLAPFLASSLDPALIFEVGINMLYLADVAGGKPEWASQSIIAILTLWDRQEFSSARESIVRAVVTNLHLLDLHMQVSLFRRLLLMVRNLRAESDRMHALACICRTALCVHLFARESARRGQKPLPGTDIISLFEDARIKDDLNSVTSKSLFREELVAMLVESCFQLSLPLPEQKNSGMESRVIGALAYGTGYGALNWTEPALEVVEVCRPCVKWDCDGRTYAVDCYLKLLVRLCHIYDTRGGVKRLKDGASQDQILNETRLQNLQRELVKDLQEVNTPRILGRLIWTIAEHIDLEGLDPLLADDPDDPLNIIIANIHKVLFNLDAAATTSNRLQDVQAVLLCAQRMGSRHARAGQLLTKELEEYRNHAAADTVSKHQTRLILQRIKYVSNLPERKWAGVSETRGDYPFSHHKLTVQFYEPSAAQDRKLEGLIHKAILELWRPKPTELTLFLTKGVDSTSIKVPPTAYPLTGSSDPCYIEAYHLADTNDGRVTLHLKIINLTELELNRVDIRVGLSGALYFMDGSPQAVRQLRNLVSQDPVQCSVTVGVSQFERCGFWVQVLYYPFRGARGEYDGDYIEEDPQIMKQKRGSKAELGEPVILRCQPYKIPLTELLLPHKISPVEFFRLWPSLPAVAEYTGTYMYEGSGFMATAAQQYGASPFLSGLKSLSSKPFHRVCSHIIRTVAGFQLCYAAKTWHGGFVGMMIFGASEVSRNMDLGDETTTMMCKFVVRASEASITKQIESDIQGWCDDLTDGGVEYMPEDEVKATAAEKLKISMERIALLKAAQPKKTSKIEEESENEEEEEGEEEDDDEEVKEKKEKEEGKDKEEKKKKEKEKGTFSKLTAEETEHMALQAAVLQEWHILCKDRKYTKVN
UniProt Q84WL9: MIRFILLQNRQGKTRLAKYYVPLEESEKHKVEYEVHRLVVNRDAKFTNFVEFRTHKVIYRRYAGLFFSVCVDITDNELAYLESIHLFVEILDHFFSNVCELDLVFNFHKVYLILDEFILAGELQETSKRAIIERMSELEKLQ

No constants are given. Whether binding was seen depends on the method and setting. Binding seen in cells or lysates may run through a third protein. For some of these results: A result given as binding can be weak or reduced; the word gives no strength. For some of these results: Where a sequence is shown, tags or fusion partners need not be part of it.

Assay [1] addresses T1, AP3B-GFP (Arabidopsis thaliana) (UniProt Q9M2T1).
T1 sequence: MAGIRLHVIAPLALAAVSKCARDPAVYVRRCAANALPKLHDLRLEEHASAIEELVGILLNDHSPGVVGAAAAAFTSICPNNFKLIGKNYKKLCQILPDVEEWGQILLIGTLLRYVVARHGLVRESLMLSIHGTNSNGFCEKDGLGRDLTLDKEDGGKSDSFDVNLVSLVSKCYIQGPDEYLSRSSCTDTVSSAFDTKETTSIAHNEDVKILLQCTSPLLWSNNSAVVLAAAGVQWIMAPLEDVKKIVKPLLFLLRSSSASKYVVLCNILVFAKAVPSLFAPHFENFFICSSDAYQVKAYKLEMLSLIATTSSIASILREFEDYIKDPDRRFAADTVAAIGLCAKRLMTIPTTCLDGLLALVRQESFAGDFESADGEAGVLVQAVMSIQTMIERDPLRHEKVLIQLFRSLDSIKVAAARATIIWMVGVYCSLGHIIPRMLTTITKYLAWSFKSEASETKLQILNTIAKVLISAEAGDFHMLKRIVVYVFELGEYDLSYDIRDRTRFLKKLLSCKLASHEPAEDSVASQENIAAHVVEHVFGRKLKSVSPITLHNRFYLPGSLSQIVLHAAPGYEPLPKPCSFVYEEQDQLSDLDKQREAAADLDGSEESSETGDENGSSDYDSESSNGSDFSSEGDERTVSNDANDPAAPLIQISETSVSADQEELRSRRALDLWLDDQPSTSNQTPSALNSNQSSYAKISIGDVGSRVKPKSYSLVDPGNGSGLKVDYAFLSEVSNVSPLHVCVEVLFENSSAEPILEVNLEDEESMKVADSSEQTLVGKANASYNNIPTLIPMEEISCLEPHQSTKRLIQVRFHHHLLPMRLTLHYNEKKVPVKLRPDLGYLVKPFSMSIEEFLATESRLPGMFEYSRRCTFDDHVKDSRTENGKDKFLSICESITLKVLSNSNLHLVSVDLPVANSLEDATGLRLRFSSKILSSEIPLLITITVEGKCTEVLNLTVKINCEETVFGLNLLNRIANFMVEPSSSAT
Kind of assay: co-IP.

The target of assay [2] is T2, nYFP-AP2M (Arabidopsis thaliana) (UniProt O23140).
T2 sequence: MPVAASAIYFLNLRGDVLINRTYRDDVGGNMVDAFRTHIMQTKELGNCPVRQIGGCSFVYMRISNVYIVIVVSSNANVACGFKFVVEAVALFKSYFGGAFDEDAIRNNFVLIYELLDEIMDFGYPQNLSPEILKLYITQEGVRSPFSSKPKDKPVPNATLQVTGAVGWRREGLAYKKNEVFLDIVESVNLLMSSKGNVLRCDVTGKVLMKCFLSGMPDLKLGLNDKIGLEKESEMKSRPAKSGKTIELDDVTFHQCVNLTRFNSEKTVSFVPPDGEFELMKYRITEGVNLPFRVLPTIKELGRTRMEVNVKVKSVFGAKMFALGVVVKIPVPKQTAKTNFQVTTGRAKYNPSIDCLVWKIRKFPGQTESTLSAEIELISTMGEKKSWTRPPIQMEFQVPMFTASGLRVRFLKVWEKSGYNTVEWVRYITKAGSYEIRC
The assay is described as follows: split reporter.

Assay [3] deals with P34-GFP (Arabidopsis thaliana) (UniProt F4JXN0). Kind of assay: co-IP.
Assay [4] deals with P34 (rBiFC fusion) (Arabidopsis thaliana) (UniProt F4JXN0). Kind of assay: split reporter.
The target of assay [5] is T3, AP5M (partner of AP5B-RFP in the tobacco Co-IP) (Arabidopsis thaliana) (UniProt Q8W0Z6).
T3 sequence: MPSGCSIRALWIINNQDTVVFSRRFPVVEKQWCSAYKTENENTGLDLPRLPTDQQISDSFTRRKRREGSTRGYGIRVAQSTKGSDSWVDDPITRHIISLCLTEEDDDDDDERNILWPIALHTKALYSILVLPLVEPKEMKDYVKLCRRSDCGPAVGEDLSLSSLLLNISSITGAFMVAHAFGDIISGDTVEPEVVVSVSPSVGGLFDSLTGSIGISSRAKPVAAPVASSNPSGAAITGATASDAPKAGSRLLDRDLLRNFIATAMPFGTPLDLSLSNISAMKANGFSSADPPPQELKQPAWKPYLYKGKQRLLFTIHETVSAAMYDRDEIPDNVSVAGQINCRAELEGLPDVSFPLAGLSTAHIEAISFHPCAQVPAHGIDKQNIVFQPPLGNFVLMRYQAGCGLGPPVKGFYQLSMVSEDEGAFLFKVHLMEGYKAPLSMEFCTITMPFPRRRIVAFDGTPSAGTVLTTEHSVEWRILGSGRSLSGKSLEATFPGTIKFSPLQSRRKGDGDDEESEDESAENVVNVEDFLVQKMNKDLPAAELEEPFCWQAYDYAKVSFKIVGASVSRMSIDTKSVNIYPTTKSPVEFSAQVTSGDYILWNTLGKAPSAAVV
The assay is described as follows: co-IP.

Assay [6] concerns the target T4, AP5M-cYFP (Arabidopsis thaliana) (UniProt Q8W0Z6).
T4 sequence: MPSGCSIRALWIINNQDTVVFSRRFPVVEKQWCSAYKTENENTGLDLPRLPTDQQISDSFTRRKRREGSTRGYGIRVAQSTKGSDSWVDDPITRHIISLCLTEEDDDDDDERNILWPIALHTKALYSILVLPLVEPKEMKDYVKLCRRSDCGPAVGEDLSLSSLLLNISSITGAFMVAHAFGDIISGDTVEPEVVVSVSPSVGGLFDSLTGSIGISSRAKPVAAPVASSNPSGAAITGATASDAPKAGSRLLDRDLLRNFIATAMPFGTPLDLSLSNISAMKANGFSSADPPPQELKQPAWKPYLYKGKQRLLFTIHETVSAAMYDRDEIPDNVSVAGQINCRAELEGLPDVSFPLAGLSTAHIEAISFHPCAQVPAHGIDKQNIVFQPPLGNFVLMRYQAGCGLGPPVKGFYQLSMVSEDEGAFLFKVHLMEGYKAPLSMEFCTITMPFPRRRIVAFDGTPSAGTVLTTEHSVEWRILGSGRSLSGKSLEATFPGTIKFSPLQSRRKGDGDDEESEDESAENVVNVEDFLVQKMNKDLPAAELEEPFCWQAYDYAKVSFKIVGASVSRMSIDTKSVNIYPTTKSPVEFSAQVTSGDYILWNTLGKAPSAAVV
The assay is described as follows: split reporter.

The target in assay [7] is BAG4-GFP (Arabidopsis thaliana) (UniProt Q8RX71). Kind of assay: co-IP.
Assay [8] addresses AP5B (partner of AP5M-RFP in the tobacco Co-IP) (Arabidopsis thaliana). The assay is described as follows: co-IP.
The target in assay [9] is SPG11 (tobacco Co-IP) (Arabidopsis thaliana). The assay is described as follows: co-IP.
Assay [10] addresses SPG15 (tobacco Co-IP) (Arabidopsis thaliana). Kind of assay: co-IP.
The target in assay [11] is AP5B-cYFP (Arabidopsis thaliana). The assay is described as follows: split reporter.
Assay [12] concerns the target AAK1-cYFP (Arabidopsis thaliana). The assay is described as follows: split reporter.

Regarding P34-mCherry (Arabidopsis thaliana), in assay [1], the binding entry was “no binding”. Consider “KNOLLE (rBiFC fusion) (from UniProt Q42374)”, for which the binding entry in assay [2] is listed as “binds”.

As for “TPLATE (TPC subunit detected with α-TPLATE) (from UniProt F4J8D3 1-1176)”, the binding entry in assay [3] is recorded as “no binding”. Take “BAG4 (rBiFC fusion) (from UniProt Q8RX71 1-269)”: the binding entry in assay [4] is given as “binds”. Consider AP5B-RFP (Arabidopsis thaliana), for which, in [5], the binding entry is “binds”. Regarding AP5Z-nYFP (Arabidopsis thaliana), the binding entry in assay [6] was “binds”. Consider “AP2S (AP-2 subunit detected with α-AP2S) (from UniProt Q84WL9)”, for which the binding entry in assay [7] and in [3] was “binds” each time.

B1: AP5M-RFP (protein, UniProt Q8W0Z6 1-613)
chain: MPSGCSIRALWIINNQDTVVFSRRFPVVEKQWCSAYKTENENTGLDLPRLPTDQQISDSFTRRKRREGSTRGYGIRVAQSTKGSDSWVDDPITRHIISLCLTEEDDDDDDERNILWPIALHTKALYSILVLPLVEPKEMKDYVKLCRRSDCGPAVGEDLSLSSLLLNISSITGAFMVAHAFGDIISGDTVEPEVVVSVSPSVGGLFDSLTGSIGISSRAKPVAAPVASSNPSGAAITGATASDAPKAGSRLLDRDLLRNFIATAMPFGTPLDLSLSNISAMKANGFSSADPPPQELKQPAWKPYLYKGKQRLLFTIHETVSAAMYDRDEIPDNVSVAGQINCRAELEGLPDVSFPLAGLSTAHIEAISFHPCAQVPAHGIDKQNIVFQPPLGNFVLMRYQAGCGLGPPVKGFYQLSMVSEDEGAFLFKVHLMEGYKAPLSMEFCTITMPFPRRRIVAFDGTPSAGTVLTTEHSVEWRILGSGRSLSGKSLEATFPGTIKFSPLQSRRKGDGDDEESEDESAENVVNVEDFLVQKMNKDLPAAELEEPFCWQAYDYAKVSFKIVGASVSRMSIDTKSVNIYPTTKSPVEFSAQVTSGDYILWNTLGKAPSAAVV
B1: the binding entry in assay [8], in assay [9] and in assay [10] was “binds” each time.

B2: AP5M-nYFP (protein, UniProt Q8W0Z6 1-613)
chain: MPSGCSIRALWIINNQDTVVFSRRFPVVEKQWCSAYKTENENTGLDLPRLPTDQQISDSFTRRKRREGSTRGYGIRVAQSTKGSDSWVDDPITRHIISLCLTEEDDDDDDERNILWPIALHTKALYSILVLPLVEPKEMKDYVKLCRRSDCGPAVGEDLSLSSLLLNISSITGAFMVAHAFGDIISGDTVEPEVVVSVSPSVGGLFDSLTGSIGISSRAKPVAAPVASSNPSGAAITGATASDAPKAGSRLLDRDLLRNFIATAMPFGTPLDLSLSNISAMKANGFSSADPPPQELKQPAWKPYLYKGKQRLLFTIHETVSAAMYDRDEIPDNVSVAGQINCRAELEGLPDVSFPLAGLSTAHIEAISFHPCAQVPAHGIDKQNIVFQPPLGNFVLMRYQAGCGLGPPVKGFYQLSMVSEDEGAFLFKVHLMEGYKAPLSMEFCTITMPFPRRRIVAFDGTPSAGTVLTTEHSVEWRILGSGRSLSGKSLEATFPGTIKFSPLQSRRKGDGDDEESEDESAENVVNVEDFLVQKMNKDLPAAELEEPFCWQAYDYAKVSFKIVGASVSRMSIDTKSVNIYPTTKSPVEFSAQVTSGDYILWNTLGKAPSAAVV
In the case of B2, the binding result in assay [11] is reported as “binds”.

B3: nYFP-AP2M (protein, UniProt O23140 1-438)
chain: MPVAASAIYFLNLRGDVLINRTYRDDVGGNMVDAFRTHIMQTKELGNCPVRQIGGCSFVYMRISNVYIVIVVSSNANVACGFKFVVEAVALFKSYFGGAFDEDAIRNNFVLIYELLDEIMDFGYPQNLSPEILKLYITQEGVRSPFSSKPKDKPVPNATLQVTGAVGWRREGLAYKKNEVFLDIVESVNLLMSSKGNVLRCDVTGKVLMKCFLSGMPDLKLGLNDKIGLEKESEMKSRPAKSGKTIELDDVTFHQCVNLTRFNSEKTVSFVPPDGEFELMKYRITEGVNLPFRVLPTIKELGRTRMEVNVKVKSVFGAKMFALGVVVKIPVPKQTAKTNFQVTTGRAKYNPSIDCLVWKIRKFPGQTESTLSAEIELISTMGEKKSWTRPPIQMEFQVPMFTASGLRVRFLKVWEKSGYNTVEWVRYITKAGSYEIRC
As to B3, the binding entry in assay [12] is “binds”.
